From publication PMC4961739, “Regulation of post-Golgi LH3 trafficking is essential for collagen homeostasis” (Nature Communications, 2016) come the findings set out here.

By UniProt entry, the sequences of proteins in these tests, tags left out. Residues count along the entry.
UniProt O60568, residues 25-738: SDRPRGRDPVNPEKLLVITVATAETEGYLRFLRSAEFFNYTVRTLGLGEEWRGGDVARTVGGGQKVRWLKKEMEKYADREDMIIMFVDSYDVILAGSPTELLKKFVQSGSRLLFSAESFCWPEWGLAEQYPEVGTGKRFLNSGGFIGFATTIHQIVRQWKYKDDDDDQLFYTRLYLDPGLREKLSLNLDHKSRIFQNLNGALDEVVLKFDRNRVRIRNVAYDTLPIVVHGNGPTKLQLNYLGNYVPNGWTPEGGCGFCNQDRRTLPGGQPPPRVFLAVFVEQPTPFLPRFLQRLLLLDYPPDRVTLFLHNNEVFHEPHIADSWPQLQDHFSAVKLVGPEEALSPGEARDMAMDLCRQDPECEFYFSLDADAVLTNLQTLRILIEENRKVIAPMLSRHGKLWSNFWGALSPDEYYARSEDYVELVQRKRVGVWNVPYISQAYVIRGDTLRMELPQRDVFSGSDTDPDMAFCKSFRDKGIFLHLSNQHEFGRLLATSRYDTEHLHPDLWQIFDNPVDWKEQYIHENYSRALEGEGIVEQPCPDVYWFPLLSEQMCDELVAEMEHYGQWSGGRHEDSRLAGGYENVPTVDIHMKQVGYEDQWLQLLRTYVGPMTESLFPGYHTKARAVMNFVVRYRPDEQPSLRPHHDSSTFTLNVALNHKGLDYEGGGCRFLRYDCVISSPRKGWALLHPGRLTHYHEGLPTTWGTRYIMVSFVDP
UniProt P61026: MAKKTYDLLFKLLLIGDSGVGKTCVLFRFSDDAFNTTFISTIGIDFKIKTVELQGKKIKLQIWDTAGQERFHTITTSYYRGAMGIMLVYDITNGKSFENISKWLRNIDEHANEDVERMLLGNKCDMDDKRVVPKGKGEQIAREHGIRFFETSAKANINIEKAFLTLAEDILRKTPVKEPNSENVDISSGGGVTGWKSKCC

One test deals with T1, HA-tagged VPS33B (human) (UniProt Q9H267).
T1 sequence: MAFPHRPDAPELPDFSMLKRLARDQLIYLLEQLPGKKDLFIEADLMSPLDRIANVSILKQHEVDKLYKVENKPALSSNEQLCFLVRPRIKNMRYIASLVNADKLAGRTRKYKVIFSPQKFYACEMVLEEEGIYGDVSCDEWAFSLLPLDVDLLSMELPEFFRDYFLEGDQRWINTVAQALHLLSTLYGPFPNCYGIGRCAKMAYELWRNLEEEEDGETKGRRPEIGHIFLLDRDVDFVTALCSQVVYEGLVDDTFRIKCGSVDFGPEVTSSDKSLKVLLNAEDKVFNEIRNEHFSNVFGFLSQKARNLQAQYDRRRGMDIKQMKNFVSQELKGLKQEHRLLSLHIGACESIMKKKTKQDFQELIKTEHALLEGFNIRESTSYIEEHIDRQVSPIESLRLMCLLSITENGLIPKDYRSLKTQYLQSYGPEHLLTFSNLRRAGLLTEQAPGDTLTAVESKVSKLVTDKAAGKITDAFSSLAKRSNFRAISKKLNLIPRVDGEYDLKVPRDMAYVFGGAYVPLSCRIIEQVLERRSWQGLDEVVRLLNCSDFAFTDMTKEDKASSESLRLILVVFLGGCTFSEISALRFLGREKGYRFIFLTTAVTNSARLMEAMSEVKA
Put plainly: co-IP; HEK293 cells transfected 48 h; NP-40 lysis buffer (0.3% NP-40, 10 mM HEPES pH 8.5, 10 mM KCl, 5 mM MgCl2, 5 mM DTT); anti-myc or anti-HA antibody on Dynabeads Protein G, overnight at 4 °C; western blot.

Test [1] addresses T2, myc-tagged VIPAR, full-length (FL) (human) (UniProt Q9H9C1).
T2 sequence: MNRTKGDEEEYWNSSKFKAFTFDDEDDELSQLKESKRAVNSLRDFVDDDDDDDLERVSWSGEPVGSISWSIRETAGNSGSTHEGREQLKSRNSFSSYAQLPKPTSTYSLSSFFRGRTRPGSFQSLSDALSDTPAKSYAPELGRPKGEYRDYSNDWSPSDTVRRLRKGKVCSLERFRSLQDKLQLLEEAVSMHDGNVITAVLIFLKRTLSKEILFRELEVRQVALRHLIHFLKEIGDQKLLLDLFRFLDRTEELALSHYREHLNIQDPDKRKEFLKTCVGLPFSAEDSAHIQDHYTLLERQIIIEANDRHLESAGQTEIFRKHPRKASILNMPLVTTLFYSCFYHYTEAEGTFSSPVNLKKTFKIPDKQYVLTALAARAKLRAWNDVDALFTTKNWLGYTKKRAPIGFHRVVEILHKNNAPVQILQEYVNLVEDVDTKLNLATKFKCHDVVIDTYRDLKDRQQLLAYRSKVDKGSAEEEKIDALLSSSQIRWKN
The test is described as above.

Results are given in words; binding and its absence hold for the method and conditions named. In cells and extracts the contact can be indirect. Some entries that bind do so weakly or less than the wild type. Where a sequence is shown, tags or fusion partners need not be part of it.

Take “lysyl hydroxylase 3 (LH3, also known as PLOD3), endogenous (from UniProt O60568 25-738) (enzyme)”: the binding entry in the test with HA-tagged VPS33B (human) is “binds”.

In the case of GFP-RAB10 (from UniProt P61026 1-200), in the test with HA-tagged VPS33B (human), the binding entry was “binds”.

B1: HA-tagged VPS33B (protein, UniProt Q9H267 1-617)
chain: MAFPHRPDAPELPDFSMLKRLARDQLIYLLEQLPGKKDLFIEADLMSPLDRIANVSILKQHEVDKLYKVENKPALSSNEQLCFLVRPRIKNMRYIASLVNADKLAGRTRKYKVIFSPQKFYACEMVLEEEGIYGDVSCDEWAFSLLPLDVDLLSMELPEFFRDYFLEGDQRWINTVAQALHLLSTLYGPFPNCYGIGRCAKMAYELWRNLEEEEDGETKGRRPEIGHIFLLDRDVDFVTALCSQVVYEGLVDDTFRIKCGSVDFGPEVTSSDKSLKVLLNAEDKVFNEIRNEHFSNVFGFLSQKARNLQAQYDRRRGMDIKQMKNFVSQELKGLKQEHRLLSLHIGACESIMKKKTKQDFQELIKTEHALLEGFNIRESTSYIEEHIDRQVSPIESLRLMCLLSITENGLIPKDYRSLKTQYLQSYGPEHLLTFSNLRRAGLLTEQAPGDTLTAVESKVSKLVTDKAAGKITDAFSSLAKRSNFRAISKKLNLIPRVDGEYDLKVPRDMAYVFGGAYVPLSCRIIEQVLERRSWQGLDEVVRLLNCSDFAFTDMTKEDKASSESLRLILVVFLGGCTFSEISALRFLGREKGYRFIFLTTAVTNSARLMEAMSEVKA
For the molecule B1, in test [1], the binding entry is “binds”.

B2: GFP-RAB25 (protein, UniProt P57735 1-213)
chain: MGNGTEEDYNFVFKVVLIGESGVGKTNLLSRFTRNEFSHDSRTTIGVEFSTRTVMLGTAAVKAQIWDTAGLERYRAITSAYYRGAVGALLVFDLTKHQTYAVVERWLKELYDHAEATIVVMLVGNKSDLSQAREVPTEEARMFAENNGLLFLETSALDSTNVELAFETVLKEIFAKVSKQRQNSIRTNAITLGSAQAGQEPGPGEKRACCISL
In the case of B2, the binding entry with HA-tagged VPS33B (human) was “binds”.
